According to PubChem BioAssay AID588590 (National Center for Advancing Translational Sciences (NCATS), 2011):
The campaign covered roughly 390,000 compounds. About 4,000 (1%) were called active. The shares of active, inactive and inconclusive entries below differ from those in the screen. Calls come from the whole dose curve; as a rule, active = well fitted inhibition curve with a large enough effect; inconclusive = small, poorly fitted or top-dose-only effect, or another doubt; inactive = no such curve, though single readings can be large or run the other way. Where the call is inconclusive, the potency comes from a doubtful curve fit.
Potency is the fitted concentration of half-maximal effect.

Amino acid sequences for entries named in this document (tags omitted). A change or cut given only in a name is not applied to a line headed by its entry.
UniProt Q9UNA4: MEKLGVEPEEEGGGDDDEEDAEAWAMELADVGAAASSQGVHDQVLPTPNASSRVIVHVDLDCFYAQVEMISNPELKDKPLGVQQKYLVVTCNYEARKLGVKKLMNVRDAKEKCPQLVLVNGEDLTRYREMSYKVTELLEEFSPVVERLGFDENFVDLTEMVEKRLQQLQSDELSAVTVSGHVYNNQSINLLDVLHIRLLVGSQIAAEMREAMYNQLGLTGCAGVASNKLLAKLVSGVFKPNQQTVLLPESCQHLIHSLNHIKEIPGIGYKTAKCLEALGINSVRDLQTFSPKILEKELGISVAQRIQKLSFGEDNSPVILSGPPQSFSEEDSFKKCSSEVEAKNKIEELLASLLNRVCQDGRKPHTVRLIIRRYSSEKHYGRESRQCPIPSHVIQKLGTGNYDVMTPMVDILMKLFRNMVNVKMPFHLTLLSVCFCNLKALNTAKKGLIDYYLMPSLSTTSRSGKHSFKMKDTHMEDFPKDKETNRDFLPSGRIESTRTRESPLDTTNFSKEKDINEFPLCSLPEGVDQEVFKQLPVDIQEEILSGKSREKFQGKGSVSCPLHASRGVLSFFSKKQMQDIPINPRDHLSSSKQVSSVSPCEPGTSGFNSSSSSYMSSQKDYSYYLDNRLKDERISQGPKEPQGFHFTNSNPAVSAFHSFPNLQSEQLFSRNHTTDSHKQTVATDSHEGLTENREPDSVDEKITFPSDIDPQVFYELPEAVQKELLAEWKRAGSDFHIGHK

These molecules were tested against DNA polymerase iota (Homo sapiens) (UniProt Q9UNA4) (assay: qHTS for Inhibitors of Polymerase Iota). Conditions: Pol iota fluorescent replication assay, 10 min; series mostly up to 115 µM; activity, negative = inhibition: at the top concentration.
In short: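 Pol iota at 10 nM preincubated 15 min with compounds at room temperature; reaction started with fluorescent substrate, 50 nM final. Fluorescence read kinetically at 0 and 10 min; buffer-only wells as negative control.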
In the case of `Cc1ccc(CNc2ncnc3onc(-c4ccc(F)cc4)c23)cc1`, the “activity, negative = inhibition” value is reported as inactive: 4.83%. In the case of `CC1(C)C(=O)Nc2ccccc2N1C(=O)COC(=O)c1cccs1`, the Potency is reported as inconclusive: 44.7 µM [inhibitor, partial curve]. With `Cc1oc2ncn(CC(C)C)c(=O)c2c1C(=O)NC(C)c1ccccc1` (stereo unspecified) the “activity, negative = inhibition” value was inactive: 1.94%. `CCc1c(C)c2ccc(OC(C)C(=O)NC(Cc3c[nH]c4ccc(O)cc34)C(=O)O)c(C)c2oc1=O` (stereo unspecified) was tested, and the Potency was inconclusive: 17.8 µM [inhibitor, full curve, poor fit]. With `O=C(CCSc1ccc(Cl)cc1)c1cccs1` the Potency was inconclusive: 39.8 µM [inhibitor, single point]. With `CCn1c2ccc(OC)cc2c2nc3ccccc3nc21` the Potency was inconclusive: 7.94 µM [inhibitor, full curve, poor fit]. For `COC(=O)c1cc(C(=O)OCC(=O)c2ccc[nH]2)cc([N+](=O)[O-])c1`, the Potency was inconclusive: 15.8 µM [inhibitor, full curve, poor fit]. For `O=C(Cn1c(=O)n(Cc2ccc3c(c2)OCO3)c(=O)c2oc3ccccc3c21)Nc1ccccc1F`, the “activity, negative = inhibition” value was inactive: 14.1%. In the case of `O=S(=O)(c1ccccc1S(=O)(=O)N1CCCCC1)N1CCCCC1`, the Potency is reported as inconclusive: 70.8 µM [inhibitor, partial curve, poor fit]. In the case of `Cc1cccc2cc(COC(=O)C(C)(C)C)c(=O)[nH]c12`, the Potency is reported as inconclusive: 39.8 µM [inhibitor, partial curve, poor fit]. For `Cc1cccc(-n2ccnc2SCC(=O)Nc2cccc3ccccc23)c1C`, the “activity, negative = inhibition” value was inactive: 3.77%. In the case of `O=C(NCCN1C(=O)S/C(=C/c2cccnc2)C1=O)C1=NN(c2ccccc2)C(=O)CC1`, the “activity, negative = inhibition” value is reported as inactive: -29.5%. In the case of `Cc1ccccc1Cc1c(C)nc2c(C(=O)NCc3ccco3)cnn2c1C`, the Potency is reported as inconclusive: 112 µM [inhibitor, partial curve, poor fit]. `COC(=O)c1ccc(S(=O)(=O)c2ccc(Cl)cc2)c(N)c1` was tested, and the Potency was inconclusive: 63.1 µM [inhibitor, partial curve, poor fit]. `O=C(O)CN1C(=O)/C(=C\c2cc(Br)ccc2OCc2ccc([N+](=O)[O-])cc2)SC1=S` was tested, and the Potency was active: 39.8 µM. `Cc1cccc(-n2c(C)nc3cc(C(=O)NCCC4=CCCCC4)ccc32)c1` was tested, and the Potency was inconclusive: 89.1 µM [inhibitor, single point]. In the case of `O=[N+]([O-])c1cccc(-c2nn(-c3ccccc3)cc2CO)c1`, the Potency is reported as inconclusive: 12.6 µM [inhibitor, partial curve]. With `COC(=O)CCC(=O)OC1(C)C(=O)C2=CN(CCc3ccccn3)C(c3ccc(OC)cc3)=CC2=C(Br)C1=O` (stereo unspecified) the Potency was inconclusive: 39.8 µM [inhibitor, single point]. `Cc1ccc(/C=C2\SC(=S)N(c3cccnc3)C2=O)o1` was tested, and the Potency was inconclusive: 12.6 µM [inhibitor, full curve, poor fit]. In the case of `CCOC(=O)c1c(/N=C/c2cccc(C)c2O)sc2c1CCN(C)C2`, the “activity, negative = inhibition” value is reported as inactive: 15.1%. With `COc1ccc(CCNC(=O)c2cc3sccc3n2Cc2ccc(Cl)cc2)cc1OC` the “activity, negative = inhibition” value was inactive: 12.7%. For `CC[C@]1(C(=O)OC)[C@H]2C(=O)N(Cc3ccccc3)C(=O)[C@H]2[C@H]2CN(C)C(=NCc3ccccc3)N21`, the “activity, negative = inhibition” value was inactive: -6.15%. `COc1cccc(C2C(C#N)=C(N)OC(C(C)(C)C)=C2C#N)c1` (stereo unspecified) was tested, and the Potency was inconclusive: 28.2 µM [inhibitor, partial curve, poor fit]. `CN(c1ccccc1)c1ccc(/C=C(/CCC(=O)O)c2nc3ccccc3s2)cc1[N+](=O)[O-]` was tested, and the Potency was active: 17.8 µM. `CCOc1cc(C(c2c(C)[nH][nH]c2=O)c2c(C)[nH][nH]c2=O)ccc1O` was tested, and the Potency was inconclusive: 2.82 µM [inhibitor, full curve, poor fit]. In the case of `CC(C)Cc1nnc(NC(=O)CCC(=O)N2CCN(c3ccccc3)CC2)s1`, the Potency is reported as inconclusive: 7.94 µM [inhibitor, full curve, poor fit]. For `COc1cc(CC(=O)OCC(=O)N2CC(C)CC(C)C2)cc(OC)c1OC` (stereo unspecified), the Potency was inconclusive: 56.2 µM [inhibitor, partial curve, poor fit]. In the case of `CC(CNC(=O)CN1C(=O)c2cccnc2Oc2ccc(Cl)cc21)c1ccccc1` (stereo unspecified), the Potency is reported as inconclusive: 89.1 µM [inhibitor, single point]. For `Cc1c2cnccc2c(C)c2c1c1ccccc1n2CCOC(=O)c1ccccc1`, the Potency was inconclusive: 63.1 µM [inhibitor, partial curve, poor fit]. `Cc1ccc(SCc2ccc(C(=O)Nc3cccnc3)cc2)cc1` was tested, and the Potency was inconclusive: 89.1 µM [inhibitor, single point]. With `CCC(C)n1c(NC(=O)c2ccccc2)c(C#N)c2nc3ccccc3nc21` (stereo unspecified) the Potency was active: 3.16 µM. `Cc1cc2c(cc1C)N(Cc1ccccc1)C1=NCCCN12` was tested, and the Potency was inconclusive: 35.5 µM [inhibitor, partial curve]. In the case of `C=CCSc1nnc(-c2ccccc2NC(=O)CC)c(=O)[nH]1`, the Potency is reported as inconclusive: 100 µM [inhibitor, single point]. For `O=C(c1cc2ccccc2o1)N1CC=C(c2ccccc2)CC1`, the Potency was inconclusive: 50.1 µM [inhibitor, partial curve, poor fit]. For `Cc1cccc(NC(=O)c2ccc3c(c2)CCN3S(=O)(=O)c2ccccc2)c1C`, the Potency was inconclusive: 89.1 µM [inhibitor, single point]. `COc1cccc(-c2ccc3ncnc(NCc4cccs4)c3c2)c1` was tested, and the Potency was inconclusive: 6.31 µM [inhibitor, partial curve, poor fit]. For `O=C(/C=C/c1cccc([N+](=O)[O-])c1)NCCSCc1ccc(Cl)cc1Cl`, the Potency was inconclusive: 28.2 µM [inhibitor, partial curve, poor fit]. With `O=C(COC(=O)Cn1[nH]c(=O)c2ccccc2c1=O)Nc1ncc(Cl)cc1Cl` the Potency was inconclusive: 20 µM [inhibitor, full curve]. In the case of `COCCNC(=O)C(OC(=O)CC1Sc2ccccc2NC1=O)c1ccncc1` (stereo unspecified), the Potency is reported as inconclusive: 31.6 µM [inhibitor, full curve, poor fit]. For `COc1ccccc1NC(=O)Cn1c(=O)c(CNc2ccc(C)cc2)cc2cc3c(cc21)OCCO3`, the “activity, negative = inhibition” value was inactive: 10.2%. With `O=C(CCCOc1ccc(Cl)cc1Cl)N/N=C/c1ccccc1` the Potency was inconclusive: 89.1 µM [inhibitor, single point]. In the case of `CC1=C(C(=O)N2CCOCC2)C(c2cc(C)cs2)NC(=O)N1` (stereo unspecified), the Potency is reported as inconclusive: 28.2 µM [inhibitor, single point]. With `COc1ccc(Br)cc1C(=O)Nc1ccc(Cc2ccncc2)cc1` the Potency was inconclusive: 35.5 µM [inhibitor, single point]. With `COc1cc(C2CC(=O)c3cnc(N)nc3C2)cc(OC)c1OC` (stereo unspecified) the Potency was inconclusive: 35.5 µM [inhibitor, single point]. With `COc1cccc(-c2nc(S(=O)(=O)c3ccccc3)c(N3CCC(C)CC3)o2)c1` the Potency was inconclusive: 79.4 µM [inhibitor, partial curve, poor fit]. `Cc1cc2nc(-c3ccc(SCc4ccc(C(=O)O)cc4)nc3)[nH]c2cc1C` was tested, and the Potency was inconclusive: 25.1 µM [inhibitor, single point]. `O=C(Nc1ccc(-c2nc3ccccc3[nH]2)cc1)c1ccc2c(c1)OCO2` was tested, and the Potency was inconclusive: 79.4 µM [inhibitor, single point]. For `CCCCN(CCCC)C(=O)CSc1nnc2n(C)c(=O)c3c4c(sc3n12)CCCC4`, the Potency was inconclusive: 3.55 µM [inhibitor, full curve, poor fit]. With `Nc1ccc(C(=O)N2CCN(S(=O)(=O)c3ccc(Cl)cc3)CC2)cc1[N+](=O)[O-]` the Potency was inconclusive: 89.1 µM [inhibitor, single point]. In the case of `CCN1CCN(Cc2cccc(Oc3ccc(Cl)cc3)c2)CC1`, the Potency is reported as inconclusive: 44.7 µM [inhibitor, partial curve, poor fit]. With `Cc1cc(-c2ccc(S(=O)(=O)N3CCN(C)CC3)s2)on1` the “activity, negative = inhibition” value was inactive: 5.06%. In the case of `O=C(NNC(=O)c1cc(Br)c(Br)s1)c1csc(N2CCOCC2)n1`, the Potency is reported as inconclusive: 89.1 µM [inhibitor, single point]. In the case of `COc1ccccc1CN=C1NC(=O)C(CC(=O)Nc2ccc(C(C)=O)cc2)S1` (stereo unspecified), the Potency is reported as inconclusive: 39.8 µM [inhibitor, single point]. `COc1ccc(CNC(=O)c2cc3c(=O)n(C)c4ccccc4c3n2C)c(OC)c1` was tested, and the “activity, negative = inhibition” value was inactive: 24.9%. `Cc1ccc(S(=O)(=O)N2CCOCC2)cc1NC(=O)CSc1ccccn1` was tested, and the Potency was inconclusive: 89.1 µM [inhibitor, partial curve, poor fit]. `Cc1cc(C(=O)COC(=O)[C@H](C)NC(=O)c2ccco2)c(C)n1Cc1ccco1` was tested, and the Potency was inconclusive: 14.1 µM [inhibitor, full curve, poor fit]. With `CCCCOc1ccc(C(=O)N(Cc2ccco2)Cc2ccco2)cc1` the Potency was inconclusive: 79.4 µM [inhibitor, partial curve]. `CC1CCN2c3cc(Cl)ccc3CC3(C(=O)OC(C)(C)OC3=O)C2C1` (stereo unspecified) was tested, and the Potency was inconclusive: 39.8 µM [inhibitor, single point]. For `CCCN1C(=O)C2C(C(=O)Nc3cccc(OC)c3)C3C=CC2(O3)C1C(=O)NC1CCCCC1` (stereo unspecified), the Potency was inconclusive: 39.8 µM [inhibitor, single point]. In the case of `CC1(OC(=O)C2CCCC2)C(=O)C=C2C=C(c3ccsc3)N(Cc3ccc4c(c3)OCO4)C=C2C1=O` (stereo unspecified), the Potency is reported as inconclusive: 15.8 µM [inhibitor, partial curve, poor fit]. In the case of `COc1ccc(OC)c(C2C(C(=O)N(C)C)=C(C)Nc3nc4ccccc4n32)c1` (stereo unspecified), the Potency is reported as inconclusive: 0.316 µM [inhibitor, partial curve, poor fit].
